Measurements as given in patent US10098906B2, “Modulation of the physical interaction between platelets and the cell surface effecting cell proliferation” (Cell Receptor GmbH, priority 2013, dated 2018).
At least one structure is not confirmed: it was looked up by name or label, or the drawing left a doubt. Some results were stated once for a whole list of compounds, not compound by compound.

Tested on: HeLa cells, clone S3
Assay: Adhesion experiment (platelet binding to cell surface), microscopic quantification
Type: cell-based, human
Conditions: for Inhibition of platelet binding to growing cells (in words): concentration not stated; for Inhibition of platelet binding to growing cells: 1 ppm, FIG. 11, triplicate
Method: The process for evaluating the platelet binding of growing cells involves the isolation of platelets from peripheral blood with two subsequent washes and cell sedimentation. These washes include a partial activation of the platelets, which is relevant for their interaction with Heparin. The incubation with the cells under investigation takes place under conditions in which full activation of platelets is approached, which would lead to lumps forming in the platelets. This would hinder analysis. Therefore, a low concentration of EDTA is added to the assay. The quantification of platelets and the calculation of the surface portions of cells and background is carried out using appropriate software, namely by macros in the open source program ImageJ.
Virus and mycoplasma free HeLa cells, clone S3, and human skin fibroblasts (NHDF) were purchased from Promo Cell, Heidelberg. Their human origin was confirmed by STR-Analysis. HeLa cells were maintained in Eagles MEM with 10% fetal calf serum. The NHDF were also maintained with 10% fetal calf serum in RPMI 1640. The passaging was performed by trypsin-EDTA treatment. The cell lines were maintained in either 25 ml bottles or in 3 cm plates.
The cells used for the experiment are cultured for 2 or 3 days in standard plates. At the start of the experiment about ⅓ of the plate surface should be covered with cells. The culture plates are subsequently washed with the buffer mixture described above and filled with further buffer mixture. For example, 30 mm culture dishes are filled with 2 ml 37° C. pre-warmed buffer mixture and 3×10^7 platelets obtained from the above-mentioned suspension.
The platelet-treated plates are incubated at 37° C. for 60 minutes. In this incubation, the pretreated platelets adhere to proliferating cells. However, cells of G0-phase bind little or none of the pre-treated platelets. This stage of incubation is when the substance to be tested is added to the cell culture buffer, in order to detect whether an effect on platelet binding is observed.
After the one hour incubation, the plates are washed at room temperature with the above mentioned buffer mixture until no free water floating platelets (generally 2 to 4 washes) are present and immediately fixed with glutaraldehyde (1% v/v in H2O).
The evaluation is carried out photographically. For this purpose, the image analysis program ImageJ is applied. The number of cell-bound platelets in relation to the recorded cell number of cells is determined. Additionally, the number of cell-bound platelets in relation to the cell-covered area may be determined.
Images are produced after the fixation in triplicate per plate. […] Subsequently, platelet number, cell number and proportional cell surface are determined by other IJ components.

| Compound | Inhibition of platelet binding to growing cells (in words) | Inhibition of platelet binding to growing cells (in words) (listed as Fondaparinux) | Inhibition of platelet binding to growing cells |
| --- | --- | --- | --- |
| CO[C@H]1O[C@H](COS(=O)(=O)O)[C@@H](O[C@@H]2O[C@@H](C(=O)O)[C@@H](O[C@H]3O[C@H](COS(=O)(=O)O)[C@@H](O[C@@H]4O[C@H](C(=O)O)[C@@H](O[C@H]5O[C@H](COS(=O)(=O)O)[C@@H](O)[C@H](O)[C@H]5NS(=O)(=O)O)[C@H](O)[C@H]4O)[C@H](OS(=O)(=O)O)[C@H]3NS(=O)(=O)O)[C@H](O)[C@H]2OS(=O)(=O)O)[C@H](O)[C@H]1NS(=O)(=O)O [fondaparinux] | unable to significantly inhibit | relatively poor |  |
| Dextran sulfate sodium salt from Leuconostoc spec [DXS] |  |  | more than 95% |
| pentosan polysulfate [PPS] |  |  | more than 95% |
